From article PMC3328432, “Molecular Requirements for Peroxisomal Targeting of Alanine-Glyoxylate Aminotransferase as an Essential Determinant in Primary Hyperoxaluria Type 1” (PLoS Biology, 2012)
These are yes or no findings as the source states them, for the method shown.

Molecular target: C-terminal cargo-binding segment of human Pex5p (residues 315-639) (human) (UniProt P50542)
Assay: SEC-MALS; analytical gel filtration and static light scattering (MiniDAWN); complex formed by mixing purified Pex5p(C) and AGT; single components also run; both purified

binding: no binding
Substance: C-terminal cargo-binding segment of human Pex5p (residues 315-639) (from UniProt P50542 315-639) (domain or fragment)
